Measurements reported in PubChem BioAssay AID1224830 (NIAID, 2016).

Aim: 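Genes whose knock-down alters the TNF-alpha reporter response to LPS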 (primary screen)
System: human THP-1 monocytic leukaemia cells, TNF dual-luciferase reporter clone, PMA-differentiated to macrophage-like cells
Knock-down reagent: siRNA pool against human genes, 50 nM
Duration: LPS for 4 h, given about 3 days after siRNA transfection
Challenge: bacterial LPS (TLR4 ligand), 10 ng/ml
Read-out: 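Ratio of firefly to renilla light, scaled to the plate median and expressed as a robust z-score per replicate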
Scale: TNF reporter robust z-score: higher = stronger TNF reporter response to LPS
Call rule: 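Each well counts as active if its z-score is over 2.8 or under -1.5; controls are left without a call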
Shown is one part, drawn at random, of about 18,000 reagents tested. About 2,900 of them (16%) count as active. 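Calls are made per well; low scores hint the gene aids the LPS response, high scores that it dampens it.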 Repeated entries: four replicate wells of each siRNA pool.

ZNF430 (GeneID 80264) → TNF reporter robust z-score: 0.22; Outcome: inactive
ZNF430 (GeneID 80264) → TNF reporter robust z-score: 0.46; Outcome: inactive
ZNF430 (GeneID 80264) → TNF reporter robust z-score: -0.1; Outcome: inactive
ZNF430 (GeneID 80264) → TNF reporter robust z-score: 1.51; Outcome: inactive
TGFBRAP1 (GeneID 9392) → TNF reporter robust z-score: -0.01; Outcome: inactive
TGFBRAP1 (GeneID 9392) → TNF reporter robust z-score: 0.5; Outcome: inactive
TGFBRAP1 (GeneID 9392) → TNF reporter robust z-score: 2.48; Outcome: inactive
TGFBRAP1 (GeneID 9392) → TNF reporter robust z-score: 2.24; Outcome: inactive
HSF4 (GeneID 3299) → TNF reporter robust z-score: -0.33; Outcome: inactive
HSF4 (GeneID 3299) → TNF reporter robust z-score: 1.92; Outcome: inactive
HSF4 (GeneID 3299) → TNF reporter robust z-score: 1.44; Outcome: inactive
HSF4 (GeneID 3299) → TNF reporter robust z-score: 1.16; Outcome: inactive
MMADHC (GeneID 27249) → TNF reporter robust z-score: -0.89; Outcome: inactive
MMADHC (GeneID 27249) → TNF reporter robust z-score: -0.9; Outcome: inactive
MMADHC (GeneID 27249) → TNF reporter robust z-score: -1.01; Outcome: inactive
MMADHC (GeneID 27249) → TNF reporter robust z-score: -1.33; Outcome: inactive

Next part, starting with the last 3 of the part before.
MMADHC (GeneID 27249) → TNF reporter robust z-score: -0.9; Outcome: inactive
MMADHC (GeneID 27249) → TNF reporter robust z-score: -1.01; Outcome: inactive
MMADHC (GeneID 27249) → TNF reporter robust z-score: -1.33; Outcome: inactive
NDE1 (GeneID 54820) → TNF reporter robust z-score: -1.65; Outcome: active
NDE1 (GeneID 54820) → TNF reporter robust z-score: -1.79; Outcome: active
NDE1 (GeneID 54820) → TNF reporter robust z-score: -1.86; Outcome: active
NDE1 (GeneID 54820) → TNF reporter robust z-score: -1.73; Outcome: active
PHACTR4 (GeneID 65979) → TNF reporter robust z-score: -0.45; Outcome: inactive
PHACTR4 (GeneID 65979) → TNF reporter robust z-score: 0.33; Outcome: inactive
PHACTR4 (GeneID 65979) → TNF reporter robust z-score: -1.18; Outcome: inactive
PHACTR4 (GeneID 65979) → TNF reporter robust z-score: 0.15; Outcome: inactive
EIF3C (GeneID 8663) → TNF reporter robust z-score: -0.9; Outcome: inactive
EIF3C (GeneID 8663) → TNF reporter robust z-score: -0.41; Outcome: inactive
EIF3C (GeneID 8663) → TNF reporter robust z-score: -0.65; Outcome: inactive
EIF3C (GeneID 8663) → TNF reporter robust z-score: -0.54; Outcome: inactive
FBXL5 (GeneID 26234) → TNF reporter robust z-score: 0.07; Outcome: inactive
FBXL5 (GeneID 26234) → TNF reporter robust z-score: -0.73; Outcome: inactive
FBXL5 (GeneID 26234) → TNF reporter robust z-score: 2.62; Outcome: inactive
FBXL5 (GeneID 26234) → TNF reporter robust z-score: -0.18; Outcome: inactive
